Measurements published in paper doi:10.1101/2025.04.30.651472.
These are yes or no findings as the source states them, for the method shown. Binding seen in cells or lysates may run through a third protein. Some results given as binding are weak or reduced against the parent protein; the word gives no strength.

By UniProt entry, the sequences of proteins in these tests, tags left out. Where a name states a change or a piece, a line headed by the entry shows the natural chain unless it says otherwise. Chains listed by the source or under a name are the forms on record and can include a tag or linker.
glucocorticoid receptor (GR), wild type (P04150, form named): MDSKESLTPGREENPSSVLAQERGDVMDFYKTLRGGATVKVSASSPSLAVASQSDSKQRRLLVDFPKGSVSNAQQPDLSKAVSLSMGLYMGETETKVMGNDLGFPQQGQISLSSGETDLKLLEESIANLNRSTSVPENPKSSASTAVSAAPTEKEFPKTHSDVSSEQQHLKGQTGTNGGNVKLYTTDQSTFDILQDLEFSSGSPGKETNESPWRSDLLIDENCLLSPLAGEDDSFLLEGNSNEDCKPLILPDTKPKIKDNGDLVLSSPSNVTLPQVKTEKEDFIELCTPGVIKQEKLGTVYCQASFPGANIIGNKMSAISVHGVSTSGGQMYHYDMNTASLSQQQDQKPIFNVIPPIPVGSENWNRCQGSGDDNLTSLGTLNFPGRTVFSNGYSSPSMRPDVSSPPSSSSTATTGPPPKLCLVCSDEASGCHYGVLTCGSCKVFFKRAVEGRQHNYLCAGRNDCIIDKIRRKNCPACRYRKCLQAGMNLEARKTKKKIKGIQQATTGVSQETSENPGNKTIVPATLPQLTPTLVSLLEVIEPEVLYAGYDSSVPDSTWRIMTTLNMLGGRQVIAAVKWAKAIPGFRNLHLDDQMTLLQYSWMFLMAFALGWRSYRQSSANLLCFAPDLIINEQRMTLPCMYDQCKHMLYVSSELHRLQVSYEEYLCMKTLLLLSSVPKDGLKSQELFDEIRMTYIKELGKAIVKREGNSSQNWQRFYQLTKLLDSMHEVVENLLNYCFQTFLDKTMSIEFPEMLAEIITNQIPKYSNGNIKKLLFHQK
RUNX3, wild type (Q13761-2, form named): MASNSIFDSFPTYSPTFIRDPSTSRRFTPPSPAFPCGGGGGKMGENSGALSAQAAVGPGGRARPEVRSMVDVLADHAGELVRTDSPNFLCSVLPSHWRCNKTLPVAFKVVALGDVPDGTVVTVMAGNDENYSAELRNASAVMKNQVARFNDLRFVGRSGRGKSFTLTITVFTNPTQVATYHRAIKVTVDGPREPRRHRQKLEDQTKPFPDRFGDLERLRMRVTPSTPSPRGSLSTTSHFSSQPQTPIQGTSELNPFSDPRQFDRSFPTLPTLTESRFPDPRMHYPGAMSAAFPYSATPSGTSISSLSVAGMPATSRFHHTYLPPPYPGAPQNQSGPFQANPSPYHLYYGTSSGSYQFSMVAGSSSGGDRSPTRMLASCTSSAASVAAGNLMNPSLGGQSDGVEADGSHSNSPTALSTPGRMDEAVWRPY

Target: glucocorticoid receptor (GR), wild type (human) (UniProt P04150)
Assay: co-IP

## RUNX3, wild type (from UniProt Q13761-2 1-429)
  binding: binds
